Results of single-concentration screens

Chains of the proteins cited; added tags and fusions are not shown. Residues count along the entry.
UniProt P9WPC5, whole entry: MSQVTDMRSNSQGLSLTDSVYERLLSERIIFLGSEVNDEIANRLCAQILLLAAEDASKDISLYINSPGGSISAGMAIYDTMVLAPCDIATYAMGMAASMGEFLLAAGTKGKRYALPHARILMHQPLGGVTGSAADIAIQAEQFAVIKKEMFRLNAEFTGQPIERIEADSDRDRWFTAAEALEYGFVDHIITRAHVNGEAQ
UniProt P9WPC3, whole entry partner: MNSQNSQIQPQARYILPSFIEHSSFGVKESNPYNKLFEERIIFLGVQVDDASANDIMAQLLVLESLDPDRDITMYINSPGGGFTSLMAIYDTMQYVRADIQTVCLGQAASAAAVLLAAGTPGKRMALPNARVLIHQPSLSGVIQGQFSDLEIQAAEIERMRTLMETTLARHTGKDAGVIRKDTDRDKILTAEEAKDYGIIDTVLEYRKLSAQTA
UniProt Q4DA54, 1-478: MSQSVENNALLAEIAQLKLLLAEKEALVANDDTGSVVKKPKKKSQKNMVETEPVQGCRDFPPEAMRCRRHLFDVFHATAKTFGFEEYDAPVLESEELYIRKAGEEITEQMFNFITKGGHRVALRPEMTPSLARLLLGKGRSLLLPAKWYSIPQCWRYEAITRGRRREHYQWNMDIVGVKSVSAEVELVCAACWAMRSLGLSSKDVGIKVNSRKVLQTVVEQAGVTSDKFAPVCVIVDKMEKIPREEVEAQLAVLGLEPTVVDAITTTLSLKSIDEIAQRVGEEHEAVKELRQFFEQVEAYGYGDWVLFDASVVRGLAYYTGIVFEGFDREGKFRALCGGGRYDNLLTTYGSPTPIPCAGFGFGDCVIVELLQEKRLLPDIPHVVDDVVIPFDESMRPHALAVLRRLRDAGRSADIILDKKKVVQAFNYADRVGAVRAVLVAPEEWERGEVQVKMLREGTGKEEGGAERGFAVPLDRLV
UniProt P9WNZ1, whole entry: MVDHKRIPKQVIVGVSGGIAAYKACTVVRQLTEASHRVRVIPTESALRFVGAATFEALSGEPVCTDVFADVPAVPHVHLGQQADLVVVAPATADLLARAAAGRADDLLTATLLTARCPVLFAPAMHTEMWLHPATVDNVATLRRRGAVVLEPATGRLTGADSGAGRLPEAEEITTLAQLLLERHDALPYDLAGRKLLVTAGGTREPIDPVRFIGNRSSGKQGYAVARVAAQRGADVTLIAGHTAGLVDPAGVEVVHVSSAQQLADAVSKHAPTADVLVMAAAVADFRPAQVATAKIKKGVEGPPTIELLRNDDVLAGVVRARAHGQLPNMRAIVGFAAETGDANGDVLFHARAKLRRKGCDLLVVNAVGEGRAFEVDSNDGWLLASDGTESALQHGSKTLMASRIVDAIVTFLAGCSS

Measurements from “University of Dundee, Small-Polar-MMV Screening Library” (2021), ChEMBL document CHEMBL3988442.

ClpP1P2: 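ClpP1P2, Mycobacterium tuberculosis (UniProt P9WPC5 and UniProt P9WPC3). Protease assay of ClpP1P2, read by the AMC dye that it sets free. Tested at 50 µM. Direction is inferred from only a few compounds that gave an IC50; most scored high, so higher reads as stronger inhibition. Most other retested compounds had strongly negative values. Of about 69,000 compounds tested this way, about 10 (0.015%) reached 50% or more in at least one test.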
Toxoplasma: 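Assay of Toxoplasma gondii numbers, read through their beta-galactosidase reporter with a colour substrate. Compounds at 10 µM. The record gives no direction; the compounds picked for IC50 retests had high values, so higher reads as fewer parasites. About 67,000 compounds were tested under these conditions; 0.38% (about 260) showed 50% or more at least once.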
Leishmania in macrophages: 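Cell assay of Leishmania donovani living inside macrophages; the read-out is not stated. Concentration: 30 µM. Higher reads as stronger inhibition (inferred: compounds with an IC50 in retests scored well above the rest). About 69,000 compounds were tested under these conditions; 1.5% (about 1,000) showed 50% or more at least once.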
TcHisRS: 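Enzyme assay of histidyl-tRNA synthetase; the read-out is not stated. Target: Histidine-tRNA ligase, Trypanosoma cruzi CL Brener (UniProt Q4DA54). Tested at 30 µM. Higher reads as stronger inhibition (inferred: compounds with an IC50 in retests scored well above the rest). About 69,000 compounds were tested under these conditions; 0.045% (about 31) showed 50% or more at least once.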
CoaBC: 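Coenzyme A biosynthesis protein CoaBC, Mycobacterium tuberculosis (UniProt P9WNZ1). Enzyme assay of CoaBC with a phosphate dye (Biomol Green) read at 650 nm. Tested at 30 µM. Higher reads as stronger inhibition, judged from the few compounds that gave an IC50. Most strong results did not repeat in a second test. Of about 67,000 compounds tested this way, about 40 (0.06%) reached 50% or more in at least one test.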

Results are given as percent effect.
How 0% and 100% were set is not recorded. Most values in the screen are low, and negative values occur.
The compounds are a random part of those screened.
A dash means the value is not listed here; it may have been measured.

| # | structure | ClpP1P2 | Toxoplasma | Leishmania in macrophages | TcHisRS | CoaBC |
|---|---|---|---|---|---|---|
| 1 | `CCCOC1CCCN(Cc2nc(-c3cccs3)oc2C)C1` (configuration not stated) | -9.936 | -3.358 | 16.35 | 1.685 | 5.03 |
| 2 | `CC(C)[C@@H]1CN(C(=O)c2ccsc2)C[C@H]1C(=O)O` | -8.39 | 22.32 | -32.63 | 3 | -0.8264 |
| 3 | `Cc1ccc(C(=O)N2C[C@@H](OCC3CCOCC3)[C@H]3OCCC[C@H]32)o1` | 5.66 | - | - | -2.732 | -10.42 |
| 4 | `CN1CCN(Cc2cccnc2)C(=O)C12CCN(C1CCOC1)CC2.O=C(O)C(F)(F)F.O=C(O)C(F)(F)F.O=C(O)C(F)(F)F` (configuration not stated) | - | -17.68 | -7.254 | - | - |
| 5 | `Cc1cncnc1C1CCN(CC2CC2)CC1` | -4.82 | - | 12.27 | 3.846 | 7.838 |
| 6 | `CCCn1ccnc1CN1C[C@@H](CN2CCCN(C)CC2)[C@@H](CO)C1` | -10.36 | 1.235 | 11.59 | 0 | -38.95 |
| 7 | `CC(c1nccs1)N(C)Cc1ccc(CCC(C)(C)O)cc1` (configuration not stated) | 1.272 | -5.664 | 30.16 | 10.98 | 5.372 |
| 8 | `Nc1cc(-c2c[nH]nc2C2CCCN2CCCc2ccccc2)ccn1` (configuration not stated) | -16.05 | -16.95 | 39.23 | 11.88 | 6.699 |
| 9 | `Cc1ccc2c(c1)N(C(=O)c1nccnc1N)CC(C)O2` (configuration not stated) | -9.392 | -7.697 | -18.22 | -1.266 | 2.644 |
| 10 | `CCc1nc(N)nc(NCCC(=O)N2CCCC2)c1C` | -1.483 | -29.94 | 4.603 | 6.667 | 17.27 |
| 11 | `CC(C)(C)NCc1nn(Cc2ccccc2)nc1-c1ccccc1` | -5.42 | 20.4 | -0.1941 | 3.478 | -13.39 |
| 12 | `Cn1cc(CN2CCCC23CCN(C(=O)c2cccn2C)CC3)cn1.O=C(O)C(F)(F)F` | - | -12.38 | 13.07 | - | - |
| 13 | `OC(CN1CCN(Cc2ccccc2)CC1)C1CC1` (configuration not stated) | -8.654 | - | - | 4.082 | 2.372 |
| 14 | `Cc1ccc(C(=O)NCC(C)Cn2cccn2)c(=O)[nH]1` (configuration not stated) | -0.8726 | -4.6 | 5.92 | 2.128 | -0.8032 |
| 15 | `Cc1ccc(NC2CCN(C(=O)CCCn3ccnc3C)CC2)nn1` | 19.89 | -19.21 | 22.93 | 2.006 | -0.6211 |
| 16 | `C[C@@H]1CN(C(=O)CCCN2CCOCC2)CC[C@@]1(O)C1CCC1` | -4.416 | 16.31 | 9.738 | -2.041 | 15.77 |
| 17 | `c1ccc2c(c1)C(NC1CCCC1)CC21CCNCC1` (configuration not stated) | -0.4798 | - | - | 4.42 | 1.98 |
| 18 | `O=C(O)C(F)(F)F.O=S1(=O)NCC2(CCNCC2)COc2ccccc21` | - | -7.066 | 11.26 | - | - |
| 19 | `COc1ncc(NS(=O)(=O)c2cccc(C)c2)c(OC)n1` | -12.87 | -14.94 | -54.23 | 0.4878 | -1.38 |
| 20 | `[H][C@@]12CCN(S(=O)(=O)CC)[C@]1([H])CCC(=O)N2CCOC` | - | 6.6 | 29.92 | - | - |
| 21 | `COCC(=O)N1CCC2(COCc3c(C)nc(N(C)C)nc32)C1` (configuration not stated) | 21.34 | 26.29 | -9 | 6 | 1.186 |
| 22 | `Cn1ccnc1-c1noc(NCc2ccc(Br)cc2)n1` | 1.332 | -4.94 | -6.056 | 14.45 | 0.9926 |
| 23 | `CC(NC(=O)NCCNc1ccccn1)c1cccs1` (configuration not stated) | -2.548 | -16.81 | 4.82 | 5.172 | 0.9032 |
| 24 | `CC(NC(=O)N1CCN(c2ccc(Cl)cc2)CC1)C(=O)N1CCSCC1` (configuration not stated) | 3.782 | -7.169 | 48.11 | 2.479 | -0.8772 |
| 25 | `CSc1ccc(C(CNC(=O)C2CC2)N2CCc3sccc3C2)cc1` (configuration not stated) | -20.2 | 2.564 | 23.53 | 9.783 | 6.343 |
| 26 | `Cc1ccc(CNCc2ccc(-n3nc(C)cc3C)nc2)cc1` | 7.73 | -18.21 | 22.67 | 7.224 | 1.862 |
| 27 | `CC(C)C(C)N1Cc2cccc(NCC(=O)N(C)C)c2C1` (configuration not stated) | 2.994 | 4.182 | 29.96 | 21.93 | 6.522 |
| 28 | `CCCN1CCC2(CC1)COc1ccccc1S(=O)(=O)N(CC1CC1)C2.O=C(O)C(F)(F)F` | - | 0.09588 | -1.884 | - | - |
| 29 | `O=C(c1cccc(-c2ncc[nH]2)c1)N1CCC(N2CCCC(O)C2)CC1` (configuration not stated) | 2.235 | -9.318 | 6.417 | 9.74 | 5.441 |
| 30 | `Cc1ccccc1C(C)NC(=O)CN1CCN(Cc2ccc(Br)s2)CC1` (configuration not stated) | 2.656 | 12.51 | -13.55 | 7.006 | - |
| 31 | `O=C(NC1CCC1)[C@@H]1CC[C@@H]2[C@@H](CCN2CCc2ccccc2)O1` | -1.941 | - | - | 10.31 | 3.202 |
| 32 | `CC(C)NC(=O)N1CCC2(CCC(=O)N2CCN2CCCC2)CC1.O=C(O)C(F)(F)F` | - | -8.839 | 8.913 | - | - |
| 33 | `COc1ncccc1C(=O)Nc1nc2c(s1)CN(S(=O)(=O)C1CC1)CC2` | -2.771 | -3.503 | 4.654 | 5.785 | -4.051 |
| 34 | `NCC1Cc2cc(-c3cnccn3)cc(Cl)c2O1` (configuration not stated) | 3.797 | -43.76 | 17.96 | 7.027 | 13.64 |
| 35 | `Cc1cc(C(=O)NCCN2CCCC(C)C2)nn1C(C)(C)C` (configuration not stated) | -1.623 | 26.31 | 12.01 | 9.453 | 3.89 |
| 36 | `CN(C(=O)Cn1nc(-c2ccc(Cl)cc2)ccc1=O)C1CCS(=O)(=O)C1` (configuration not stated) | -6.567 | 3.971 | 0.4887 | 1.754 | 1.768 |
| 37 | `Cc1c(Cl)c(C(F)(F)F)nn1C(C)C(=O)NC1CCN(C)CC1` (configuration not stated) | -3.831 | 16.76 | 24.53 | 3.509 | 1.722 |
| 38 | `CNC(=O)NC(=O)CN(C)C(c1cccnc1)c1ccc(F)cc1F` (configuration not stated) | -10.17 | 18.43 | 28.47 | 6.122 | 2.788 |
| 39 | `CN(C)Cc1cnc2n1CCN(Cc1ccsc1)CC2.O=C(O)C(F)(F)F.O=C(O)C(F)(F)F` | - | 1.611 | 30.23 | - | - |
| 40 | `COc1ccc(CC(=O)N2CC[C@@H]3CN(C)S(=O)(=O)[C@@H]3CC2)cc1` | -4.22 | - | - | 3.911 | -0.8485 |
| 41 | `CCOc1ccc2oc(-c3cnn(C)c3C)c(O)c(=O)c2c1` | -3 | 7.594 | 2.394 | 1.327 | -17.99 |
| 42 | `O=C(O)C(F)(F)F.O=C(O)C(F)(F)F.[H][C@@]12CCN(c3ccncn3)C[C@@]1([H])O[C@@H](C(=O)NCc1cccnc1)C2` | - | 5.232 | 14.4 | - | - |
| 43 | `C[C@@H]1C[C@H](C(F)(F)F)n2nc(C3CCN(S(=O)(=O)N(C)C)CC3)cc2N1` | -1.762 | 10.18 | 4.794 | 5.993 | -0.1239 |
| 44 | `O=C(O)C(F)(F)F.[H][C@@]12CCCO[C@]1([H])[C@H](Oc1ncccc1F)CN2S(=O)(=O)CCC` | - | -0.8203 | 12.27 | - | - |
| 45 | `Cc1cc(C)n(CC2CCCN2C(=O)Cc2c(C)noc2C)n1` (configuration not stated) | 9.335 | 8.099 | 14.12 | 3.008 | 1.542 |
| 46 | `CN(C)c1nc(N2CCCC2)nc2c1CCN(Cc1nccn1C)CC2` | 0.819 | - | - | 3.518 | -1.361 |
| 47 | `Cc1nc(CN2CCCCC2CCc2cccs2)co1` (configuration not stated) | 4.146 | -10.64 | 13.57 | 7.463 | 9.383 |
| 48 | `CN(C)Cc1cc(C2CCCCN2S(=O)(=O)Cc2ccccc2)nn1C` (configuration not stated) | -50.96 | - | - | 6.391 | -2.797 |

For reference, 3 entries once more:

| structure | ClpP1P2 | Toxoplasma | Leishmania in macrophages | TcHisRS | CoaBC |
|---|---|---|---|---|---|
| `Cc1ccc(NC2CCN(C(=O)CCCn3ccnc3C)CC2)nn1` | 19.89 | -19.21 | 22.93 | 2.006 | -0.6211 |
| `Cc1cc(C)n(CC2CCCN2C(=O)Cc2c(C)noc2C)n1` (configuration not stated) | 9.335 | 8.099 | 14.12 | 3.008 | 1.542 |
| `CC(NC(=O)NCCNc1ccccn1)c1cccs1` (configuration not stated) | -2.548 | -16.81 | 4.82 | 5.172 | 0.9032 |